Measured values reported in PubChem BioAssay AID200 (DTP/NCI, 2004).
The list shows only some results of the screen, not a fair sample: it is rich in T/C values a quarter to a half above the control, in often repeated tests (any T/C) and in doses without a T/C. Other doses and runs of a compound stand elsewhere. T/C gives the treated animals as a percentage of the vehicle group. Some doses have a count of surviving animals in place of a T/C: the source holds a T/C of zero for them, seemingly a mark for toxic or unscored doses. Some doses without a T/C left all or most animals alive at the check, yet need not have been tolerated: the source hardly ever lists a survival T/C far under the control, and the zero likely stands for such cases as well. Survivors were counted at the toxicity check, usually on the fifth day, unless a day is given; later deaths do not show. Schedule codes are those of the source, read here as Q, the interval in days (D) or hours (H), X, the number of doses. Some doses were run more than once; the values are given in rising order. Counts like (3×) give the number of equal values in this list. Where survival is the endpoint, this PubChem deposit counts one and a half times the control or more as active, and values a quarter to a half above the control carry no call in these data; other NCI protocols may use other cut-offs. Some T/C values are followed by the survivors on the day toxicity was checked, most often the fifth; where none is given, no animal had died by that day.

Tested on: B6C3F1 mice, B16 melanoma ip, median survival T/C
Experiment: NCI In Vivo Anticancer Drug Screen. Data for tumor model B16 Melanoma (intraperitoneal) in B6C3F1 mice
Details: T/C endpoint: median survival time, higher T/C = longer survival
Method in brief: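 Mice bearing transplanted tumor were dosed with compound or vehicle, and survival was recorded. Activity is expressed as the treated-group measurement (T) divided by the vehicle control measurement (C).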

[1] = dose: 1.25 mg/kg/injection, schedule: Q01DX009 (ip), vehicle: water
[2] = dose: 8.0 mg/kg/injection, schedule: Q01DX009 (ip), vehicle: saline

COC(=O)NC1C(C)OC(OC2C/C=C(/C)C3C=CC4C(OC5CC(OC6CCC(OC7CC(O)C(OC8CCC(O)C(C)O8)C(C)O7)C(C)O6)C(OC(C)=O)C(C)O5)C(C)CC(C)C4C3(C)/C(O)=C3/C(=O)OC4(CC(C=O)=CC(O)C4/C=C\2C)C3=O)CC1(C)[N+](=O)[O-] (stereo not given)
T/C (dose: 0.76 mg/kg/injection, schedule: Q03HX024 (ip), vehicle: water): 126 % of control
T/C (dose: 1.13 mg/kg/injection, schedule: Q03HX024 (ip), vehicle: water): 140 % of control
T/C [1]: 133 % of control
survivor count [1]: 10 of 10
T/C (dose: 1.53 mg/kg/injection, schedule: Q03HX008 (ip), vehicle: water): 146 % of control
T/C (dose: 2.0 mg/kg/injection, schedule: Q01DX009 (ip), vehicle: water): 148 % of control
T/C (dose: 2.28 mg/kg/injection, schedule: Q03HX008 (ip), vehicle: water): 129 % of control
T/C (dose: 2.4 mg/kg/injection, schedule: Q01DX005 (ip), vehicle: water): 142 % of control
T/C (dose: 2.5 mg/kg/injection, schedule: Q01DX009 (ip), vehicle: water, evaluated on day 45): 132 % of control
T/C (dose: 2.5 mg/kg/injection, schedule: Q01DX009 (ip), vehicle: water, evaluated on day 60): 130, 153 [9 of 10 alive], 154 % of control
T/C (dose: 3.0 mg/kg/injection, schedule: Q01DX009 (ip), vehicle: water): 130 [7 of 8 alive] and 145 % of control
T/C (dose: 3.6 mg/kg/injection, schedule: Q01DX005 (ip), vehicle: water): 143 and 147 % of control
T/C (dose: 4.5 mg/kg/injection, schedule: Q01DX009 (ip), vehicle: water): 133 % of control
T/C (dose: 5.0 mg/kg/injection, schedule: Q01DX009 (ip), vehicle: water, evaluated on day 45): 175 % of control
T/C (dose: 5.0 mg/kg/injection, schedule: Q01DX009 (ip), vehicle: water, evaluated on day 60): 135, 155, 158 % of control
T/C (dose: 5.3 mg/kg/injection, schedule: Q01DX005 (ip), vehicle: water): 132 % of control [9 of 10 alive]
T/C (dose: 6.0 mg/kg/injection, schedule: Q01DX005 (ip), vehicle: water): 137 % of control
T/C (dose: 6.1 mg/kg/injection, schedule: Q04DX003 (ip), vehicle: water): 142 % of control
T/C (dose: 6.7 mg/kg/injection, schedule: Q01DX009 (ip), vehicle: water): 138 % of control
survivor count (dose: 7.58 mg/kg/injection, schedule: Q03HX008 (ip), vehicle: water): 2 of 10
survivor count (dose: 8.4 mg/kg/injection, schedule: Q03HX024 (ip), vehicle: water): 0 of 10
T/C (dose: 9.0 mg/kg/injection, schedule: Q01DX005 (ip), vehicle: water): 142 % of control
T/C (dose: 10.0 mg/kg/injection, schedule: Q01DX009 (ip), vehicle: water, evaluated on day 45): 154 % of control
T/C (dose: 10.0 mg/kg/injection, schedule: Q01DX009 (ip), vehicle: water, evaluated on day 60): 121, 146, 153, 179, 191 % of control
survivor count (dose: 11.3 mg/kg/injection, schedule: Q03HX008 (ip), vehicle: water): 0 of 10
T/C (dose: 12.0 mg/kg/injection, schedule: Q01DX005 (ip), vehicle: water): 149 % of control [9 of 10 alive]
T/C (dose: 15.0 mg/kg/injection, schedule: Q01DX009 (ip), vehicle: water): 143 % of control
survivor count (dose: 16.88 mg/kg/injection, schedule: Q03HX008 (ip), vehicle: water): 0 of 10
T/C (dose: 18.0 mg/kg/injection, schedule: Q01DX001 (iv), vehicle: water): 126 % of control
survivor count (dose: 18.0 mg/kg/injection, schedule: Q01DX005 (ip), vehicle: water): 2 of 10
survivor count (dose: 20.0 mg/kg/injection, schedule: Q01DX009 (ip), vehicle: water): 2 of 10, 3 of 10, 6 of 10, 7 of 10
survivor count (dose: 27.0 mg/kg/injection, schedule: Q01DX005 (ip), vehicle: water): 0 of 10 and 1 of 10
survivor count (dose: 30.0 mg/kg/injection, schedule: Q01DX005 (ip), vehicle: water): 2 of 10
survivor count (dose: 30.2 mg/kg/injection, schedule: Q04DX003 (ip), vehicle: water): 10 of 10
survivor count (dose: 40.0 mg/kg/injection, schedule: Q01DX009 (ip), vehicle: water): 0 of 10
survivor count (dose: 40.0 mg/kg/injection, schedule: Q01DX009 (sc), vehicle: water): 6 of 10
survivor count (dose: 45.0 mg/kg/injection, schedule: Q04DX003 (ip), vehicle: water): 8 of 10
survivor count (dose: 60.3 mg/kg/injection, schedule: Q01DX001 (ip), vehicle: water): 1 of 10
survivor count (dose: 60.3 mg/kg/injection, schedule: Q01DX001 (iv), vehicle: water): 2 of 10
survivor count (dose: 90.0 mg/kg/injection, schedule: Q01DX001 (ip), vehicle: water): 0 of 9
survivor count (dose: 90.0 mg/kg/injection, schedule: Q01DX001 (iv), vehicle: water): 0 of 10
survivor count (dose: 135.0 mg/kg/injection, schedule: Q01DX001 (ip), vehicle: water): 0 of 10

N[C@@H](Cc1ccc(N(CCCl)CCCl)cc1)C(=O)O
T/C (dose: 0.5 mg/kg/injection, schedule: Q01DX009 (ip), vehicle: saline, evaluated on day 55): 141 and 148 % of control
T/C (dose: 0.5 mg/kg/injection, schedule: Q01DX009 (ip), vehicle: saline, evaluated on day 60): 122, 123, 126 [9 of 10 alive], 142, 143 (2×), 147, 160, 174 % of control
T/C (dose: 0.5 mg/kg/injection, schedule: Q01DX009 (ip), vehicle: water): 147 % of control
T/C (dose: 1.0 mg/kg/injection, schedule: Q01DX009 (ip), vehicle: saline with Tween-80): 137 % of control
T/C (dose: 1.0 mg/kg/injection, schedule: Q01DX009 (ip), vehicle: saline, evaluated on day 55): 161 and 162 % of control
T/C (dose: 1.0 mg/kg/injection, schedule: Q01DX009 (ip), vehicle: saline, evaluated on day 60): 155, 156, 159 [9 of 10 alive], 161 [9 of 10 alive], 166, 178, 195, 197, 201 % of control
T/C (dose: 2.0 mg/kg/injection, schedule: Q01DX009 (ip), vehicle: saline, evaluated on day 55): 178 and 182 % of control
T/C (dose: 2.0 mg/kg/injection, schedule: Q01DX009 (ip), vehicle: saline, evaluated on day 60): 102, 159 (2×), 168, 177, 193, 196, 206, 223 % of control
T/C (dose: 4.0 mg/kg/injection, schedule: Q01DX009 (ip), vehicle: saline, evaluated on day 55): 172 [9 of 10 alive] and 272 % of control
T/C (dose: 4.0 mg/kg/injection, schedule: Q01DX009 (ip), vehicle: saline, evaluated on day 60): 98, 100, 115, 167, 189, 212, 257, 271 % of control
survivor count (dose: 4.0 mg/kg/injection, schedule: Q01DX009 (ip), vehicle: saline): 10 of 10
survivor count (dose: 4.0 mg/kg/injection, schedule: Q01DX009 (ip), vehicle: water): 10 of 10
T/C (dose: 5.48 mg/kg/injection, schedule: Q01DX001 (ip), vehicle: other): 142 % of control
T/C (dose: 8.0 mg/kg/injection, schedule: Q01DX009 (ip), vehicle: saline with Tween-80): 137 % of control [9 of 10 alive]
T/C [2]: 129 % of control
survivor count [2]: 7 of 10, 9 of 10, 10 of 10 (3×), 6 of 6
survivor count (dose: 8.0 mg/kg/injection, schedule: Q01DX009 (ip), vehicle: water): 10 of 10
survivor count (dose: 16.0 mg/kg/injection, schedule: Q01DX009 (ip), vehicle: saline): 9 of 10
